Reference: PMC4599002, “The Potato Nucleotide-binding Leucine-rich Repeat (NLR) Immune Receptor Rx1 Is a Pathogen-dependent DNA-deforming Protein” (The Journal of Biological Chemistry, 2015)

Assays:
Experiment in all cases: EMSA
[1] = molecular target: T1, Rx1(1-489) WT (CC-NB-ARC) (potato (introgressed from Solanum andigena)) (UniProt Q9XGF5); details: EMSA: 0.15 nM 32P nucleic acid, 20 mM Tris-HCl pH 8.0, 60 mM NaCl, 2 mM EDTA, 1 mM DTT, 10% glycerol, 0.1 mg/ml BSA, 20 min on ice, recombinant protein, residues 1-489, protein details: His6 (pET32c)
T1 sequence (looked up): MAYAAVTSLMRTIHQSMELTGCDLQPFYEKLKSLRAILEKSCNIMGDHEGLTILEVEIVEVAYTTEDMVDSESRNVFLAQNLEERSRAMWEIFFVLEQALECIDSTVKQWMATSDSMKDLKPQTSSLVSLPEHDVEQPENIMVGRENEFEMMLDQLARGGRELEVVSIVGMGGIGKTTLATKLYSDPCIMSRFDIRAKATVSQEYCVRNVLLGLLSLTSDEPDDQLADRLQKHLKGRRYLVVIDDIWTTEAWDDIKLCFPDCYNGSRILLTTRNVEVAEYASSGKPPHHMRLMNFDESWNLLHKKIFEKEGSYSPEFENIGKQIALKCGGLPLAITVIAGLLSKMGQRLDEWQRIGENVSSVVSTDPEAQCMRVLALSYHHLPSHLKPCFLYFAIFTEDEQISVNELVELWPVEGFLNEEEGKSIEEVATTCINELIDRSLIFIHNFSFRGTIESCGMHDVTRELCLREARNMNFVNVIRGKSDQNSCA

[2] = molecular target: T2, Rx1(1-489) K176R (potato (introgressed from Solanum andigena)) (UniProt Q9XGF5); details: EMSA: 0.15 nM 32P nucleic acid, 20 mM Tris-HCl pH 8.0, 60 mM NaCl, 2 mM EDTA, 1 mM DTT, 10% glycerol, 0.1 mg/ml BSA, 20 min on ice, recombinant protein, residues 1-489, protein details: His6 (pET32c), label: 32P 5' end
T2 sequence (looked up): T1 sequence (looked up) with K176R

PSiP-NB (Zea mays) = molecular target: T3, PSiP-NB (Zea mays) (UniProt A0A1D6GX18); details: binds with considerably lower affinity than NB-ARC, Kd in Table 1 not in material; EMSA: 0.15 nM 32P nucleic acid, 20 mM Tris-HCl pH 8.0, 60 mM NaCl, 2 mM EDTA, 1 mM DTT, 10% glycerol, 0.1 mg/ml BSA, 20 min on ice; recombinant protein; residues 177-339; protein details: His6 (pRSET-B); label: 32P 5' end; single-stranded DNA
T3 sequence (looked up): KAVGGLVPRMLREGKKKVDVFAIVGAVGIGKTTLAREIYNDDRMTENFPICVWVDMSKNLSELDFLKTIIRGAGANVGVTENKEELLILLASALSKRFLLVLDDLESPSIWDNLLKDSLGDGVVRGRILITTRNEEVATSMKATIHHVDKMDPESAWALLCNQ

PSiP-NB-ARC (Zea mays) = molecular target: T4, PSiP-NB-ARC (Zea mays) (UniProt A0A1D6GX18); details: Kd in Table 1 not in material; EMSA: 0.15 nM 32P nucleic acid, 20 mM Tris-HCl pH 8.0, 60 mM NaCl, 2 mM EDTA, 1 mM DTT, 10% glycerol, 0.1 mg/ml BSA, 20 min on ice; recombinant protein; residues 178-505; label: 32P 5' end; single-stranded DNA
T4 sequence (looked up): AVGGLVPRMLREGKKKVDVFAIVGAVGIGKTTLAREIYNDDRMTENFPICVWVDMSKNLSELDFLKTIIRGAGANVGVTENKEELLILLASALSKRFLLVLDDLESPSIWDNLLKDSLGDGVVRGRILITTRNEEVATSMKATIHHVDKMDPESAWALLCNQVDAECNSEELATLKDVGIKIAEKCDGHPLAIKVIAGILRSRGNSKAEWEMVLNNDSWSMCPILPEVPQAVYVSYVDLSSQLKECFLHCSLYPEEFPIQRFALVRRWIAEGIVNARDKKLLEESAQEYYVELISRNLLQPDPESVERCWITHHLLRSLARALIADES

[3] = molecular target: T5, Rx1-4Strep (potato (introgressed from Solanum andigena)) (UniProt Q9XGF5); details: 1 uM protein, binds, weaker than E. coli Rx1(1-489); EMSA: 0.15 nM 32P nucleic acid, 20 mM Tris-HCl pH 8.0, 60 mM NaCl, 2 mM EDTA, 1 mM DTT, 10% glycerol, 0.1 mg/ml BSA, 20 min on ice; recombinant protein; residues 1-937; protein details: C-terminal 4x StrepII; label: 32P 5' end; single-stranded DNA
T5 sequence (looked up): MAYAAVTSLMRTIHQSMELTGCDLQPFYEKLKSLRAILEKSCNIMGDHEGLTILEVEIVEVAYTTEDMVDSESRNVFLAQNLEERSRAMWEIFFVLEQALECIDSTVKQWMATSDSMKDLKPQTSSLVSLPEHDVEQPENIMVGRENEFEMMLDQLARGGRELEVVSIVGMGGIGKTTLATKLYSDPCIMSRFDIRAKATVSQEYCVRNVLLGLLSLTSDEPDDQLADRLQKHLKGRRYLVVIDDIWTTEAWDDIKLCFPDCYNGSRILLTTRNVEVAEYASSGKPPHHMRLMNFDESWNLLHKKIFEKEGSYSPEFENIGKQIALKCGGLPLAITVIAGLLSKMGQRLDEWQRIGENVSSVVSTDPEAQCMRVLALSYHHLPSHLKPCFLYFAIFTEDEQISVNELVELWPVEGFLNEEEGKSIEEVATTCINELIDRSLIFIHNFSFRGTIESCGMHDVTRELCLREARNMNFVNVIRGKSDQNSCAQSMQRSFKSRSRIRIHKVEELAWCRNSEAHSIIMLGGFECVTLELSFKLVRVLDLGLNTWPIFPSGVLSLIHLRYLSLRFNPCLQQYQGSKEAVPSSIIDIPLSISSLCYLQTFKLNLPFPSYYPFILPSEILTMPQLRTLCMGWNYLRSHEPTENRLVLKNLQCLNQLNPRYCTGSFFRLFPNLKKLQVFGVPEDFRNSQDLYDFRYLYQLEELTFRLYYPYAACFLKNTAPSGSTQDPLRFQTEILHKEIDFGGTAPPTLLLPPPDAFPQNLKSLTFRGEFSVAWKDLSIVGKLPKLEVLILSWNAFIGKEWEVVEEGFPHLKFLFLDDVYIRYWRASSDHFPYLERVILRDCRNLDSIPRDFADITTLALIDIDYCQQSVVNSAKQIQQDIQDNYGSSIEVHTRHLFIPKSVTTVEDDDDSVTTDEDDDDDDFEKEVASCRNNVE

[4] = label: 32P 5' end, single-stranded DNA
[5] = affinity did not correlate with increasing bubble size, label: 32P 5' end of strand 1, folded or branched DNA

**Q.** Does “GACGCTGCCGAATTCTGGCTTGCTAGGACATCTTTGCCCACGTTGACCC (double strand) [dsF12]” bind ([1]; lower affinity than F12-ds/ds, label: 32P 5' end of strand 1)?
**A.** Result: binds more weakly

**Q.** Does “GACGCTGCCGAATTCTGGCTTGCTAGGACATCTTTGCCCACGTTGACCC / TGGGTCAACGTGGGCAAAGATGTCCTAGCAATGTAATCGTCTATGACGTT / AACGTCATAGACGATTACA [F12-ds/ss]” bind ([1]; lower affinity than F12-ss/ss, label: 32P 5' end of strand 1, folded or branched DNA)?
**A.** Result: binds

**Q.** Does “GACGCTGCCGAATTCTGGCTTGCTAGGACATCTTTGCCCACGTTGACCC / TGGGTCAACGTGGGCAAAGATGTCCTAGCAATGTAATCGTCTATGACGTT / GCCAGAATTCGGCAGCGTC / AACGTCATAGACGATTACA [F12-ds/ds]” bind ([1]; higher affinity than dsF12, label: 32P 5' end of strand 1, folded or branched DNA)?
**A.** Result: binds

**Q.** Does “GACGCTGCCGAATTCTGGCTTGCTAGGACATCTTTGCCCACGTTGACCC [ssF12 (SS3)]” bind [1, 4]?
**A.** Result: binds

**Q.** Does “TGGGTCAACGTGGGCAAAGATGTCCTAGCAATGTAATCGTCTATGACGTT (double strand) [SS1/SS2 dsDNA]” bind ([2]; 1 uM ADP, 10 mM ZnCl2, no discriminatory influence of nucleotide)?
**A.** Result: binds

**Q.** Does “TGGGTCAACGTGGGCAAAGATGTCCTAGCAATGTAATCGTCTATGACGTT (double strand) [SS1/SS2 dsDNA]” bind ([2]; 1 uM ATP, 10 mM ZnCl2, no discriminatory influence of nucleotide)?
**A.** Result: binds

**Q.** Does “TGGGTCAACGTGGGCAAAGATGTCCTAGCAATGTAATCGTCTATGACGTT (double strand) [SS1/SS2 dsDNA]” bind ([2]; lower affinity than WT)?
**A.** Result: binds more weakly

**Q.** What does the source list for “TGGGTCAACGTGGGCAAAGATGTCCTAGCAATGTAATCGTCTATGACGTT [SS1 ssDNA]”?
**A.** binding result (PSiP-NB (Zea mays)): binds more weakly; binding result (PSiP-NB-ARC (Zea mays)): binds; binding result ([2]; lower affinity than WT, single-stranded DNA): binds more weakly; binding result [3]: binds more weakly

**Q.** Does “TTTGGTCTAACTTTACCGCTACTAAATGCCGCGGATTGGTTTCGCTGAATCAGGTTATTA (double strand) [dsP1]” bind ([1]; lower affinity than small bubbles, label: 32P 5' end of strand 1)?
**A.** Result: binds more weakly

**Q.** Does “TTTGGTCTAACTTTACCGCTACTAAATGCCGCGGATTGGTTTCGCTGAATCAGGTTATTA / TAATAACCTGATTCAGCGAAACATTGTAGGTAAGCTTAGTAGCGGTAAAGTTAGACCAAA [dsP1-13]” bind [1, 5]?
**A.** Result: binds

**Q.** Does “TTTGGTCTAACTTTACCGCTACTAAATGCCGCGGATTGGTTTCGCTGAATCAGGTTATTA / TAATAACCTGATTCAGCGAACCAATCGCAACCATTTAGTAGCGGTAAAGTTAGACCAAA [dsP1-5]” bind ([1]; small bubble, higher affinity than linear dsDNA, label: 32P 5' end of strand 1, folded or branched DNA)?
**A.** Result: binds

**Q.** Does “TTTGGTCTAACTTTACCGCTACTAAATGCCGCGGATTGGTTTCGCTGAATCAGGTTATTA / TAATAACCTGATTCAGCGAATGACCGATAACGTCCACTTGAGCGGTAAAGTTAGACCAAA [dsP1-20]” bind [1, 5]?
**A.** Result: binds

**Q.** Does “TTTGGTCTAACTTTACCGCTACTAAATGCCGCGGATTGGTTTCGCTGAATCAGGTTATTA [ssP1]” bind [1, 4]?
**A.** Result: binds

**Q.** Does “UGGGUCAACGUGGGCAAAGAUGUCCUAGCAAUGUAAUCGUCUAUGACGUU [SS1 ssRNA]” bind ([2]; lower affinity than WT)?
**A.** Result: binds more weakly

Where a chain is given by its changes, count along the chain named. For some assays here: The comparison behind a weaker result is the experiment's own reference, which may not be listed here. Protein sequences can lack the tags named with them. The exact form of at least one protein or probe is not confirmed. At least one verdict was read from the data and is not stated in words by the source.
